# Source: patent US20230052256A1
# Chains of the proteins cited; added tags and fusions are not shown. Lines headed by an entry give the natural chain unless they say otherwise; changes in a name come on top. A line that says so, or that is headed by a name, gives the form on record, which may keep a tag or linker.
# recombinant human FGFR1b-Fc (R&D Systems) (P11362, form named): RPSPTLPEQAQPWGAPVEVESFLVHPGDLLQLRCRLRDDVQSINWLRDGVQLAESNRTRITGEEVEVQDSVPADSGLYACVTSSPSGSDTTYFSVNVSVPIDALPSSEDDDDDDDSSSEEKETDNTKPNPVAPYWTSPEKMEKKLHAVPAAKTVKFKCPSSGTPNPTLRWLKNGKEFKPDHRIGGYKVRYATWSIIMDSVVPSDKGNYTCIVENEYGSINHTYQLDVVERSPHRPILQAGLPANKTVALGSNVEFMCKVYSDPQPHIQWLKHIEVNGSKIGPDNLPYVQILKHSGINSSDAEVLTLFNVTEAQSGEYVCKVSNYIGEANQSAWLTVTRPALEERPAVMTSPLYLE
# Results are given in words; binding and its absence hold for the method and conditions named. Some binding calls cover weakened binding; strength is not graded here.
# B1: Ab 26 (mouse monoclonal antibody) (antibody, V domains shown)
# VH: DVHLQESGPGLVKPSQSLSLTCSVTGYSITSGYYWNWIRQFPGNKLEWMGYITYDGSNNYNPSLKNRLSITRDTSKNQFFLQLSSLTTEDTATYFCARVYYYGSGNFDVWGTGTTVTVSS
# VL: SIVMTQTPKILLVSAGDRVTITCKASQSVSNDVAWYQQKPGQSPKLLIYYASNRYTGVPDRFTGSGYGTDFTFTISTVQAEDLAVYFCHQDHTSPFTFGSGTKLEIK
# Experiments:
# [1] = target: recombinant human FGFR1b-Fc (R&D Systems) (human) (UniProt P11362); experiment: ELISA on HuFGFR1b
# [2] = target: recombinant human FGFR1b-Fc (R&D Systems) (human) (UniProt P11362); experiment: ELISA on FGFR-Fc proteins
binder,measurement,setting,value
B1,binding,[1],binds
same,binding,[2],binds
